SMILES strings stand for the structures.

The chains behind the UniProt entries cited, without tags or fusion partners. Where a name states a change or a piece, a line headed by the entry shows the natural chain unless it says otherwise.
UniProt P48736: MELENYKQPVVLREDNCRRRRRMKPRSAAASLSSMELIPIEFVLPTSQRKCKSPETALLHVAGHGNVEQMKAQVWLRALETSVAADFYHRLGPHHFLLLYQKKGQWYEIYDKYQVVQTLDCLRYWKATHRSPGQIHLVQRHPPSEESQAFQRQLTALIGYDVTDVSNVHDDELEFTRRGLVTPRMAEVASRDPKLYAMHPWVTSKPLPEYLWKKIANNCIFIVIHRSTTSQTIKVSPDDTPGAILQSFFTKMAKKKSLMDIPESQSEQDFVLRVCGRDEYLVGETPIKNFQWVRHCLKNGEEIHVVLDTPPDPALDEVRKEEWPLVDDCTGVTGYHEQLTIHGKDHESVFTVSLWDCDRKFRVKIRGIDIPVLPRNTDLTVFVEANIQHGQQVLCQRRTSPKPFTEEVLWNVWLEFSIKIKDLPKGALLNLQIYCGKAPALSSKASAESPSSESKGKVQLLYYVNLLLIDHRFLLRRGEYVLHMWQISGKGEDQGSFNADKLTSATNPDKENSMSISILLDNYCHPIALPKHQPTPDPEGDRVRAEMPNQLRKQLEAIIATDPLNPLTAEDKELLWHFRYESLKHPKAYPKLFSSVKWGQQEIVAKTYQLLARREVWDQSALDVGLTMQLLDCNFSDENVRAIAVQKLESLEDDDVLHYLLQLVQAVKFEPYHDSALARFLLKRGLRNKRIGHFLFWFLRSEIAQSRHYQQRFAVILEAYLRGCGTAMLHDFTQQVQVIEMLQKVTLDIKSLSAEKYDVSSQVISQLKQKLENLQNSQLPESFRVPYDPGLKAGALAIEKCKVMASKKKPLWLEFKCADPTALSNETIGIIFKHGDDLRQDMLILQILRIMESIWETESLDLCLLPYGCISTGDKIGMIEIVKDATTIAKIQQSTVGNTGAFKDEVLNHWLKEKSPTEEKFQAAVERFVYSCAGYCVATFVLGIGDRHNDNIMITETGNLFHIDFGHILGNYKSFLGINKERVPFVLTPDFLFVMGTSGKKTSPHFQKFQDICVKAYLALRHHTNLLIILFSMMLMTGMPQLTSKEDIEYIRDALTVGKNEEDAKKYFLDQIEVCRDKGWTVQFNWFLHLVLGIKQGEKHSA

In ChEMBL document CHEMBL2069199, “Development of isoform selective PI3-kinase inhibitors as pharmacological tools for elucidating the PI3K pathway” (Bioorg Med Chem Lett, 2012) one finds Ki data, which are given here for one compound.

For the assay, the target named is Phosphatidylinositol 4,5-bisphosphate 3-kinase catalytic subunit gamma isoform (Homo sapiens, UniProt P48736).

Usually Ki stands for a measure of affinity in units of concentration, obtained from inhibition or displacement. The low end stands for higher affinity, the high end for lower affinity. `CCn1nnc(CCNC(=O)Nc2nc(C)c(-c3ccc(S(C)(=O)=O)c(F)c3)s2)n1` showed a Ki of 36 nM.
